Results taken from PMC5177890, “Controlled Orientation of Active Sites in a Nanostructured Multienzyme Complex” (Scientific Reports, 2016).
Results are given in words; binding and its absence hold for the method and conditions named.

Biological target: Mannitol-2-dehydrogenase from Pseudomonas fluorescens, wild type (Pseudomonas fluorescens) (UniProt O08355)
Experiment: SEC; size exclusion chromatography of the enzyme in solution (Supplementary Fig. 1); conditions not told in the main text; both purified

binding: no binding
B1: Mannitol-2-dehydrogenase from Pseudomonas fluorescens, wild type (enzyme, UniProt O08355 1-493)
chain: MKLNKQNLTQLAPEVKLPAYTLADTRQGIAHIGVGGFHRAHQAYYTDALMNTGEGLDWSICGVGLRSEDRKARDDLAGQDYLFTLYELGDTDDTEVRVIGSISDMLLAEDSAQALIDKLASPEIRIVSLTITEGGYCIDDSNGEFMAHLPQIQHDLAHPSSPKTVFGFICAALTQRRAAGIPAFTVMSCDNLPHNGAVTRKALLAFAALHNAELHDWIKAHVSFPNAMVDRITPMTSTAHRLQLHDEHGIDDAWPVVCEPFVQWVLEDKFVNGRPAWEKVGVQFTDDVTPYEEMKIGLLNGSHLALTYLGFLKGYRFVHETMNDPLFVAYMRAYMDLDVTPNLAPVPGIDLTDYKQTLVDRFSNQAIADQLERVCSDGSSKFPKFTVPTINRLIADGRETERAALVVAAWALYLKGVDENGVSYTIPDPRAEFCQGLVSDDALISQRLLAVEEIFGTAIPNSPEFVAAFERCYGSLRDNGVTTTLKHLLKKPV
